Some results were stated once for a whole list of compounds, not compound by compound.
Experiment: Brain penetration after oral gavage, HPLC/MS of brain extracts
Type: in vivo, C57BL/6 mice
Details: after 24 hours
Description: C57BL/6 mice ([…]) were used. The animals received treatments with either free compounds of Formulae 1 and 10, or encapsulated compounds, prepared according to the Examples 16 and 17. Doses as indicated in the Table 4 below were administered in phosphate-buffered saline (PBS) through an oral gavage. After 12 hours and 24 hours, randomly selected mice from each group were sacrificed, their brains collected and stored in −80° C. The concentrations of the compounds in the tissues were determined by HPLC/MS analysis.
Tissue samples were homogenized in phosphate-buffered saline solution, then diluted with acetonitrile to 50% v/v, centrifuged at 10,000 g for 10 minutes, and supernatants were analyzed. The compounds concentrations in the brain extracts were determined from calibration curves. The results were the averaged from 2 mice for each treatment group/time point.

With `O=C1CC(N2CCC(Nc3ccc(OC(F)(F)F)cc3)CC2)C(=O)N1c1ccc(Cl)cc1` (stereo not shown) [Formula 10] the “level in the brain when encapsulated in PLGA relative to solution” value was “over 2 fold”.
